{
  "source": "paper PMC7819943",
  "about": "“Rice protein-binding microarrays: a tool to detect cis-acting elements near promoter regions in rice”",
  "note": "The list shows a part of the results.",
  "data": [
    {"target": "T1, OsSMF1 (Oryza sativa, UniProt Q6ZLB0 1-436)", "T1 sequence": "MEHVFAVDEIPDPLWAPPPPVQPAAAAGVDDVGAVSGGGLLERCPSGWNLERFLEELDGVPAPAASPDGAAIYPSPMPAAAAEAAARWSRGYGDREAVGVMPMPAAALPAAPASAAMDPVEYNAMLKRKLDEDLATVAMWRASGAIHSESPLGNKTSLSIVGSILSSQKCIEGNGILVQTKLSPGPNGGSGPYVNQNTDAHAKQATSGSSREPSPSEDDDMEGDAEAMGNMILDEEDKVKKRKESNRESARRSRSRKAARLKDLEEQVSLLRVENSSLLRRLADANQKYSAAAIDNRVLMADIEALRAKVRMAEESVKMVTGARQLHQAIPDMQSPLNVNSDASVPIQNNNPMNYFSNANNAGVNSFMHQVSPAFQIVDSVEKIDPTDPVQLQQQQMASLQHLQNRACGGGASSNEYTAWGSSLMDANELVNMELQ", "test": "protein-binding microarray (RPBM); PBS, 2% BSA, 51.3 ng/ul salmon testes DNA, 50 uM zinc acetate, 200 nM TF, 25 C, 1 h; high values mean tight binding", "details": "protein: recombinant; tags: N-terminal polyhistidine and DsRed monomer fusion (pET32a); chain copies: 2; label: CyDye5-dUTP incorporated in the synthesized complementary strand; 3' TTTTT single-stranded linker to array surface; dsDNA, one strand shown", "summary_of_the_method": "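In PBS with 2% BSA, salmon testes DNA and 50 µM zinc acetate, 200 nM protein was incubated on a custom Agilent array at 25 °C for 1 h and then washed off. The array had been made double-stranded by primer extension with Cy5-dUTP and blocked with 2% BSA. The proteins were transcription factors fused N-terminally to polyhistidine and DsRed, expressed in E. coli BL21-CodonPlus and purified on Ni–NTA. The binding signal is per-feature fluorescence intensity (arbitrary units) from an Axon 4000B scanner.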", "values": [
      {"sequence": "GGCAGGCAGCCCTGATTAGCTAAACACGTCATTGCTCAGGCGGAGTCACCTAGTGCAG", "binding signal": "10700 fluorescence intensity (a.u.)"},
      {"sequence": "AGTGTCACTACTACTGGTACGGTGATGTGTACATCTCGCCCGGAGTCACCTAGTGCAG", "binding signal": "6280 fluorescence intensity (a.u.)"},
      {"sequence": "GCCCCAGCTTATCTGTCCACCTCACTCAGTCTCATCCCCACGGAGTCACCTAGTGCAG", "binding signal": "3770 fluorescence intensity (a.u.)"},
      {"sequence": "ATGCTCCATGCATGTGTCCAAACATTTGATGTGACGGGAGCGGAGTCACCTAGTGCAG", "binding signal": "3230 fluorescence intensity (a.u.)"},
      {"sequence": "GTCCATGTGGCGTGCCACGTAGACAAGACCACGGTCAAACCGGAGTCACCTAGTGCAG", "binding signal": "7810 fluorescence intensity (a.u.)"},
      {"sequence": "TCGCTTCGCTTGGAACACCTCCAAAACCCTACTTCCGCCTCGGAGTCACCTAGTGCAG", "binding signal": "3480 fluorescence intensity (a.u.)"},
      {"sequence": "GTGGGGCCCATGTGGCCCCATGTGTCATCTTTACTACCGTCGGAGTCACCTAGTGCAG", "binding signal": "5880 fluorescence intensity (a.u.)"},
      {"sequence": "ATGAAGACGTGCCAGGTACAAGTGCTGATGAAGAACAGCTCGGAGTCACCTAGTGCAG", "binding signal": "3420 fluorescence intensity (a.u.)"},
      {"sequence": "CGCCGTGAGTTGGTCCAGCGCGAAGCCGTCGCAGATGTGGCGGAGTCACCTAGTGCAG", "binding signal": "3780 fluorescence intensity (a.u.)"},
      {"sequence": "GCAATTGCAAAGAGCTCAGTTACGTATGAAACACAAAGCTCGGAGTCACCTAGTGCAG", "binding signal": "3310 fluorescence intensity (a.u.)"},
      {"sequence": "ACCAGTACGCATAGCATCATGTTGTTCCTGTGAAAGCATCCGGAGTCACCTAGTGCAG", "binding signal": "3460 fluorescence intensity (a.u.)"},
      {"sequence": "CCATTCGTCTCCACACGAGCATGAGGGCGCAGACGTCTCACGGAGTCACCTAGTGCAG", "binding signal": "3260 fluorescence intensity (a.u.)"},
      {"sequence": "ATAACAATTCAGATCCTCTGTTGACATGTGGAGCCGAGGGCGGAGTCACCTAGTGCAG", "binding signal": "34100 fluorescence intensity (a.u.)"},
      {"sequence": "GTCTCGCTCACGCAGTCACCCGCACGCGTGGCGCCCACTCCGGAGTCACCTAGTGCAG", "binding signal": "3840 fluorescence intensity (a.u.)"},
      {"sequence": "GTAATACCTCTGCTTTTAATATATATGACGCTATTAATTTCGGAGTCACCTAGTGCAG", "binding signal": "3750 fluorescence intensity (a.u.)"},
      {"sequence": "CATTCCGTTTTACAACTCTGTCTATATATTGCGTGTAGCTCGGAGTCACCTAGTGCAG", "binding signal": "3160 fluorescence intensity (a.u.)"},
      {"sequence": "GGTAGATGTGTAGCAAATCCAAAATAAAATCCACGAGGCACGGAGTCACCTAGTGCAG", "binding signal": "3630 fluorescence intensity (a.u.)"},
      {"sequence": "TCACGGTCACCTGGGATGCCGGGACCCACCCTTGTCATCGCGGAGTCACCTAGTGCAG", "binding signal": "3350 fluorescence intensity (a.u.)"},
      {"sequence": "CGCCGTCACCGACGCGTGGGCCCGGGGTGGCTGTCCCCACCGGAGTCACCTAGTGCAG", "binding signal": "3660 fluorescence intensity (a.u.)"},
      {"sequence": "AAACGGGCTGACTCATCATCACTCATCCAATTCCCATCCCCGGAGTCACCTAGTGCAG", "binding signal": "15100 fluorescence intensity (a.u.)"},
      {"sequence": "AGCTCACCGCATTGTAAAGGCCCTTACTAATCTTAGCAAGCGGAGTCACCTAGTGCAG", "binding signal": "40300 fluorescence intensity (a.u.)"},
      {"sequence": "TGAGTCCGTTTCCATACGCGCCATTGCACGTCACTGCGATCGGAGTCACCTAGTGCAG", "binding signal": "23800 fluorescence intensity (a.u.)"},
      {"sequence": "AAACTCGACGCGACGTGGCAGGACGACTCACGATGAGCCGCGGAGTCACCTAGTGCAG", "binding signal": "6500 fluorescence intensity (a.u.)"},
      {"sequence": "AAACGGCTTATATGTCACCAGTTACACTGGCCAGTACCTCCGGAGTCACCTAGTGCAG", "binding signal": "3680 fluorescence intensity (a.u.)"},
      {"sequence": "TCCGTCGCGATTCGCCACCTCGCCCTCGTCTCGTTTTAGCCGGAGTCACCTAGTGCAG", "binding signal": "3450 fluorescence intensity (a.u.)"},
      {"sequence": "GAAAAGTACACGTCACGTCCATGTGGTATTGCCACATCAGCGGAGTCACCTAGTGCAG", "binding signal": "39000 fluorescence intensity (a.u.)"},
      {"sequence": "TATATTTGTGGATGTGTTCTAGTGTTCTAACGGATGATGGCGGAGTCACCTAGTGCAG", "binding signal": "7880 fluorescence intensity (a.u.)"},
      {"sequence": "GCAACATGATGCTCCACCGCAACCTCGGCAACCTCAATGCCGGAGTCACCTAGTGCAG", "binding signal": "3160 fluorescence intensity (a.u.)"},
      {"sequence": "AAAGAGTGATGACGTGGTATATGACACGTGGATCTCACGCCGGAGTCACCTAGTGCAG", "binding signal": "28100 fluorescence intensity (a.u.)"},
      {"sequence": "GATCGAGCGGCAGGCCAGCAGTAACCTGGCCGAGAAGTTGCGGAGTCACCTAGTGCAG", "binding signal": "64500 fluorescence intensity (a.u.)"},
      {"sequence": "GACTAATCTGCAAAGCTTTCCACCAGGCCAGGTTGGCTGGCGGAGTCACCTAGTGCAG", "binding signal": "17800 fluorescence intensity (a.u.)"},
      {"sequence": "TGGGACGCCGTACACTCCCTCAGCAGCCGCCTCGCATTCTCGGAGTCACCTAGTGCAG", "binding signal": "3730 fluorescence intensity (a.u.)"},
      {"sequence": "GACTCCAACTAAGCCCAGAAGTTCTATTCTATCTGAATAACGGAGTCACCTAGTGCAG", "binding signal": "33400 fluorescence intensity (a.u.)"},
      {"sequence": "AACCAGAGAAACCTGAGGCACCACCATCACCACCACCGCCCGGAGTCACCTAGTGCAG", "binding signal": "3840 fluorescence intensity (a.u.)"},
      {"sequence": "TCATTGGGAGGAGGTGATGTCAACGGGCCAAGTCAGAAAGCGGAGTCACCTAGTGCAG", "binding signal": "7020 fluorescence intensity (a.u.)"},
      {"sequence": "AGGGATGGAGGTGACGACTCTGTGGCCTCATCCTGTTGGCCGGAGTCACCTAGTGCAG", "binding signal": "3780 fluorescence intensity (a.u.)"},
      {"sequence": "GAAAGAATGTTTATCTTAGAAAGTATAGTGTGCCACGCAACGGAGTCACCTAGTGCAG", "binding signal": "4260 fluorescence intensity (a.u.)"},
      {"sequence": "TTCGAAAGTCAATTTGCATTTGACAATGGCAGATACGGATCGGAGTCACCTAGTGCAG", "binding signal": "3370 fluorescence intensity (a.u.)"},
      {"sequence": "GGCGCGGCGCGGCGCGGCGTGGCGTCTCGTCTCGACCCATCGGAGTCACCTAGTGCAG", "binding signal": "3570 fluorescence intensity (a.u.)"},
      {"sequence": "ATCCACGTCATCCATGACATGGCCTCAATGTTTTCACACACGGAGTCACCTAGTGCAG", "binding signal": "18000 fluorescence intensity (a.u.)"},
      {"sequence": "GCCAAGCCAAACCAATCCAAGCCAAGCCAAATGAATGATTCGGAGTCACCTAGTGCAG", "binding signal": "3150 fluorescence intensity (a.u.)"},
      {"sequence": "AATTAGGCTTAAAAGACTCGTCACATAATTTACACGCAATCGGAGTCACCTAGTGCAG", "binding signal": "3530 fluorescence intensity (a.u.)"}
    ]}
  ]
}
